Laboratory results as given in PMC7021753.
Results are given in words; binding and its absence hold for the method and conditions named. Binding seen in cells or lysates may run through a third protein. Binding can be weak; no strength is given.

Protein sequences, listed by entry. Tags and fused reporters are not part of them.
UniProt Q94517: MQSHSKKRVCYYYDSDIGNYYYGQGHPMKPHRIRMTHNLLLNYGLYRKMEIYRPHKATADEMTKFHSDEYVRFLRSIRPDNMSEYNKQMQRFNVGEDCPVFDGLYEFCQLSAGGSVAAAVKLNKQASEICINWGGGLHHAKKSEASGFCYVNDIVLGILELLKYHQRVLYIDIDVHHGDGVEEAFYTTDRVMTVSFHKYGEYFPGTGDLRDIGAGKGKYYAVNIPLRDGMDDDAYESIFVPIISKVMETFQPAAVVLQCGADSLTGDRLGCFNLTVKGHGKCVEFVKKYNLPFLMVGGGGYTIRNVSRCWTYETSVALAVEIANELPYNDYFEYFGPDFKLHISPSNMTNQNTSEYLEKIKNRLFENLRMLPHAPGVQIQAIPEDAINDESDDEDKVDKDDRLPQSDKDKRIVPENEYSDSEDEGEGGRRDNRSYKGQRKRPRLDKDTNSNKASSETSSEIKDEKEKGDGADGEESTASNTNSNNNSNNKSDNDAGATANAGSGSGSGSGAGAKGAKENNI

Biological target: SU(VAR)2-1-EGFP fusion protein (Drosophila melanogaster) (UniProt Q9VL20)
Assay: co-IP; SU(VAR)2-1-EGFP captured on GFP-Trap magnetic beads from larval salivary gland extract (100 glands; lysis buffer 20 mM HEPES pH 7.7, 450 mM NaCl, 0.25% NP40, diluted); washes incl. 500 mM NaCl; Western blot with EGFP and RPD3 polyclonal antibodies; two independent immunoprecipitations

Substance: histone deacetylase RPD3 (from UniProt Q94517 1-521) (enzyme)
- binding: binds
